Experimental data taken from the supplement of paper PMC10331698.
± gives the standard deviation of the averaged measurements. Small differences around the control level are noise.

How the values were obtained:
Assay in all cases: level (log10 ratio to DMSO vehicle control); higher = higher biomarker level / cell amount than vehicle control
[1] = compound: OCCC(F)(F)C(F)(F)C(F)(F)C(F)(F)C(F)(F)C(F)(F)F [6:2 Fluorotelomer alcohol]; settings: 2200 nM; in DMSO
Protocol: (§1)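 BioMAP Diversity Plus panel of 12 human primary cell co-culture systems (3C, 4H, LPS, SAg, BT, BF4T, BE3C, CASM3C, HDF3CGF, KF3CT, MyoF, Mphg). Compounds were added 1 h before stimulation and left for 24 h (MyoF 48 h; BT 72 h for soluble read-outs or 6 d for IgG). Biomarkers were read by ELISA, cytotoxicity by SRB, PBMC viability and proliferation by Alamar Blue. Each well value was divided by the mean of 8 DMSO control wells on the same plate and log10 transformed; duplicate blinded samples were tested at 4 concentrations.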

[2] = compound: OCC(F)(F)C(F)(F)C(F)(F)F [1H,1H-Heptafluorobutanol]; settings: 2200 nM; in DMSO
Protocol: as §1

[3] = compound: CCCCCCCCC(F)(F)C(F)(F)C(F)(F)C(F)(F)C(F)(F)C(F)(F)F [1-(Perfluorohexyl)octane]; settings: in DMSO
Protocol: as §1

[4] = compound: Cc1ccc(S(=O)(=O)OCC(F)(F)C(F)(F)C(F)(F)C(F)(F)C(F)(F)C(F)F)cc1 [1H,1H,7H-Perfluoroheptyl 4-methylbenzenesulfonate]; settings: 2200 nM; in DMSO
Protocol: as §1

[5] = compound: FC(F)(F)C(F)(F)C(F)(F)C(F)(F)C(F)(F)C(F)(F)CC1CO1 [3-(Perfluorohexyl)-1,2-epoxypropane]; settings: 2200 nM; in DMSO
Protocol: as §1

[6] = compound: O=C(O)C(F)(F)C(F)(F)C(F)(F)C(F)(F)F [Perfluoropentanoic acid]; settings: in DMSO
Protocol: as §1

[7] = compound: O=C(O)C(F)(F)C(F)(F)C(F)(F)OC(F)(F)F [Perfluoro(4-methoxybutanoic) acid]; settings: 2200 nM; in DMSO
Protocol: as §1

[8] = compound: O=S(=O)(O)CCC(F)(F)C(F)(F)C(F)(F)C(F)(F)C(F)(F)C(F)(F)C(F)(F)C(F)(F)F [8:2 Fluorotelomer sulfonic acid]; settings: in DMSO
Protocol: as §1

[9] = compound: O=C(O)C(F)(F)C(F)(F)C(F)(F)C(F)(F)C(F)(F)C(F)(F)C(F)(F)C(F)(F)C(F)(F)C(F)F [11-H-Perfluoroundecanoic acid]; settings: 2200 nM; in DMSO
Protocol: as §1

[10] = compound: CN(C(=O)C(F)(F)C(F)(F)C(F)(F)F)[Si](C)(C)C [N-Methyl-N-trimethylsilylheptafluorobutyramide]; settings: 2200 nM; in DMSO
Protocol: as §1

[11] = compound: CC(C)(C)C(=O)CC(=O)C(F)(F)C(F)(F)C(F)(F)F [(Heptafluorobutanoyl)pivaloylmethane]; settings: 2200 nM; in DMSO
Protocol: as §1

[12] = compound: NCC(F)(F)C(F)(F)C(F)(F)C(F)(F)C(F)(F)C(F)(F)C(F)(F)F [1H,1H-Perfluorooctylamine]; settings: 2200 nM; in DMSO
Protocol: as §1

[13] = compound: O=C(O)C(F)(F)C(F)(F)C(F)(F)C(F)(F)C(=O)O [Octafluoroadipic acid]; settings: 2200 nM; in DMSO
Protocol: as §1

[14] = compound: O=C(O)C(F)(F)C(F)(F)C(F)(F)C(F)(F)C(F)(F)C(F)(F)F [Perfluoroheptanoic acid]; settings: in DMSO
Protocol: as §1

[15] = compound: NC(=O)C(F)(F)C(F)(F)C(F)(F)F [Heptafluorobutyramide]; settings: 2200 nM; in DMSO
Protocol: as §1

[16] = compound: CCN(CCO)S(=O)(=O)C(F)(F)C(F)(F)C(F)(F)C(F)(F)C(F)(F)C(F)(F)C(F)(F)C(F)(F)F [N-Ethyl-N-(2-hydroxyethyl)perfluorooctanesulfonamide]; settings: in DMSO
Protocol: as §1

Test System | level (log10) [1] | level (log10) [2] | level (log10) ([3]; 740 nM) | level (log10) ([3]; 2200 nM) | level (log10) [4] | level (log10) [5] | level (log10) ([6]; 2200 nM) | level (log10) ([6]; 6700 nM) | level (log10) ([6]; 20000 nM) | level (log10) ([6]; 60000 nM) | level (log10) [7] | level (log10) ([8]; 2200 nM) | level (log10) ([8]; 6700 nM) | level (log10) ([8]; 20000 nM) | level (log10) ([8]; 60000 nM) | level (log10) [9] | level (log10) [10] | level (log10) [11] | level (log10) [12] | level (log10) [13] | level (log10) ([14]; 2200 nM) | level (log10) ([14]; 6700 nM) | level (log10) ([14]; 20000 nM) | level (log10) ([14]; 60000 nM) | level (log10) [15] | level (log10) ([16]; 2200 nM) | level (log10) ([16]; 6700 nM) | level (log10) ([16]; 20000 nM)
BF4T:MMP-1 | 0.012 ± 0.0099 | 0.0045 ± 0.0035 | -0.001 ± 0.045 | -0.0015 ± 0.049 | 0.0065 ± 0.043 | 0.0115 ± 0.0064 | 0.014 ± 0.023 | 0 ± 0.014 | -0.005 ± 0.0057 | 0.0085 ± 0.0092 | 0.012 ± 0.033 | 0.011 ± 0.018 | 0.005 ± 0.0085 | -0.002 ± 0.0071 | 0.0035 ± 0.0021 | -0.021 ± 0.055 | 0.0095 ± 0.052 | 0.007 ± 0.016 | 0.0005 ± 0.03 | 0.0135 ± 0.0021 | 0.008 | -0.0005 ± 0.028 | 0.001 ± 0.03 | 0.039 ± 0.051 | 0.01 ± 0.028 | 0.016 ± 0.016 | 0.015 | 0.0095 ± 0.0078
CASM3C:CXCL8/IL-8 | 0.0315 ± 0.033 | 0.0095 ± 0.00071 | 0.011 ± 0.014 | 0.005 ± 0.013 | 0.004 ± 0.011 | 0.0265 ± 0.05 | -0.006 ± 0.0071 | -0.01 ± 0.0085 | -0.019 ± 0.011 | -0.0015 ± 0.013 | 0 ± 0.03 | 0.0225 ± 0.0035 | 0.019 ± 0.018 | -0.0065 ± 0.012 | 0.0035 ± 0.013 | 0.004 ± 0.0085 | 0.001 | 0.0065 ± 0.015 | 0.0125 ± 0.037 | -0.002 ± 0.0071 | 0.021 ± 0.038 | -0.0085 ± 0.0064 | -0.002 ± 0.0042 | 0.046 ± 0.018 | -0.0005 ± 0.021 | -0.0075 ± 0.012 | -0.0075 ± 0.016 | -0.024 ± 0.0085
lMphg:CXCL8/IL-8 | -0.0125 ± 0.086 | 0.022 ± 0.018 | 0.004 ± 0.013 | 0.0015 ± 0.016 | 0.0225 ± 0.046 | 0.0185 ± 0.035 | -0.03 ± 0.031 | 0.005 ± 0.031 | -0.0275 ± 0.013 | 0.044 ± 0.064 | 0.032 ± 0.11 | -0.03 ± 0.0028 | 0.001 ± 0.0085 | 0.022 ± 0.013 | 0.0775 ± 0.0035 | 0.0165 ± 0.067 | 0.0075 ± 0.022 | 0.007 ± 0.02 | 0.044 ± 0.071 | -0.0035 ± 0.016 | 0.0055 ± 0.074 | -0.0125 ± 0.0035 | 0.032 ± 0.0042 | 0.18 ± 0.035 | 0.0235 ± 0.093 | 0.0125 ± 0.0021 | -0.047 ± 0.048 | -0.032 ± 0.016
lMphg:CCL2/MCP-1 | 0.004 ± 0.018 | -0.0055 ± 0.035 | 0.005 ± 0.031 | -0.011 ± 0.025 | -0.007 ± 0.045 | 0.003 ± 0.0014 | 0.002 ± 0.0099 | 0.038 ± 0.0028 | 0.0155 ± 0.03 | 0.0015 ± 0.035 | 0.0175 ± 0.037 | -0.02 ± 0.0099 | 0.0075 ± 0.019 | -0.019 ± 0.016 | 0.0155 ± 0.00071 | -0.003 ± 0.021 | -0.0035 ± 0.016 | -0.013 ± 0.02 | -0.0215 ± 0.005 | 0.0205 ± 0.03 | -0.0205 ± 0.05 | -0.0365 ± 0.021 | -0.019 ± 0.0042 | 0.027 ± 0.023 | 0.009 ± 0.021 | -0.0055 ± 0.033 | 0.007 ± 0.034 | 0.002 ± 0.023
4H:CCL26/Eotaxin-3 | 0.062 ± 0.051 | 0.008 ± 0.016 | 0.0135 ± 0.03 | 0.001 ± 0.0028 | 0.013 ± 0.024 | 0.0005 ± 0.0064 | 0.003 ± 0.0071 | 0.0015 ± 0.0035 | -0.0185 ± 0.022 | 0.004 ± 0.05 | 0.0275 ± 0.011 | 0.0145 ± 0.021 | 0.0095 ± 0.06 | -0.0325 ± 0.015 | -0.075 ± 0.0042 | -0.049 ± 0.03 | 0.0085 ± 0.046 | -0.002 ± 0.014 | 0.033 ± 0.052 | 0.0165 ± 0.005 | 0.0045 ± 0.005 | 0.0055 ± 0.0064 | 0.0045 ± 0.0092 | -0.015 ± 0.0085 | 0.0365 ± 0.021 | 0.081 ± 0.058 | 0.077 ± 0.031 | -0.143 ± 0.14
CASM3C:PAI-I | 0.0135 ± 0.00071 | -0.0015 ± 0.0092 | 0.003 ± 0.014 | 0.008 ± 0.0071 | 0.002 ± 0.014 | 0.012 ± 0.018 | -0.0075 ± 0.013 | -0.0095 ± 0.011 | -0.007 ± 0.0042 | 0.0005 ± 0.011 | 0.0075 ± 0.0021 | 0.001 ± 0.016 | -0.0015 ± 0.019 | 0.012 ± 0.018 | 0.0095 ± 0.012 | -0.006 ± 0.0085 | 0.002 ± 0.025 | -0.0045 ± 0.0035 | 0.0075 ± 0.0078 | -0.007 ± 0.016 | 0.009 ± 0.0085 | -0.0005 ± 0.018 | 0.0035 ± 0.011 | 0.0105 ± 0.015 | 0.009 ± 0.0057 | 0 | 0 ± 0.0071 | 0.004 ± 0.0085
3C:CD142/Tissue Factor | 0.023 ± 0.044 | -0.0015 ± 0.03 | 0.016 ± 0.024 | 0.003 ± 0.018 | 0.012 ± 0.024 | -0.0335 ± 0.0078 | 0.0045 ± 0.0078 | 0.0225 ± 0.011 | 0.018 ± 0.027 | 0.0395 ± 0.056 | 0.015 ± 0.065 | -0.0285 ± 0.025 | -0.018 ± 0.065 | 0.001 ± 0.052 | -0.0295 ± 0.046 | -0.0185 ± 0.021 | 0 ± 0.047 | 0.019 ± 0.0057 | -0.0285 ± 0.019 | 0.0435 ± 0.012 | -0.0025 ± 0.005 | -0.0065 ± 0.037 | -0.004 ± 0.027 | 0.0285 ± 0.039 | -0.0165 ± 0.073 | 0.017 ± 0.0028 | 0.0825 ± 0.036 | 0.235 ± 0.059
lMphg:CCL3/MIP-1alpha | -0.004 ± 0.014 | 0.016 ± 0.016 | 0.0185 ± 0.016 | -0.0065 ± 0.013 | 0.0245 ± 0.023 | -0.0165 ± 0.022 | -0.026 ± 0.018 | 0.008 ± 0.059 | -0.006 ± 0.055 | 0.006 ± 0.055 | -0.013 ± 0.034 | 0.0025 ± 0.018 | 0.0035 ± 0.03 | 0.0095 ± 0.026 | 0.0065 ± 0.032 | -0.0125 ± 0.00071 | 0.008 ± 0.014 | -0.02 ± 0.0042 | 0.0105 ± 0.013 | -0.001 ± 0.018 | -0.006 ± 0.0014 | -0.0265 ± 0.013 | -0.0075 ± 0.0078 | 0.018 ± 0.017 | -0.006 ± 0.034 | 0.017 ± 0.085 | 0.0325 ± 0.035 | 0.112 ± 0.013

Reformatted with tabs: entries from further up
Test System	level (log10) [1]	level (log10) [2]	level (log10) ([3]; 740 nM)	level (log10) ([3]; 2200 nM)	level (log10) [4]	level (log10) [5]	level (log10) ([6]; 2200 nM)	level (log10) ([6]; 6700 nM)	level (log10) ([6]; 20000 nM)	level (log10) ([6]; 60000 nM)	level (log10) [7]	level (log10) ([8]; 2200 nM)	level (log10) ([8]; 6700 nM)	level (log10) ([8]; 20000 nM)	level (log10) ([8]; 60000 nM)	level (log10) [9]	level (log10) [10]	level (log10) [11]	level (log10) [12]	level (log10) [13]	level (log10) ([14]; 2200 nM)	level (log10) ([14]; 6700 nM)	level (log10) ([14]; 20000 nM)	level (log10) ([14]; 60000 nM)	level (log10) [15]	level (log10) ([16]; 2200 nM)	level (log10) ([16]; 6700 nM)	level (log10) ([16]; 20000 nM)
CASM3C:CXCL8/IL-8	0.0315 ± 0.033	0.0095 ± 0.00071	0.011 ± 0.014	0.005 ± 0.013	0.004 ± 0.011	0.0265 ± 0.05	-0.006 ± 0.0071	-0.01 ± 0.0085	-0.019 ± 0.011	-0.0015 ± 0.013	0 ± 0.03	0.0225 ± 0.0035	0.019 ± 0.018	-0.0065 ± 0.012	0.0035 ± 0.013	0.004 ± 0.0085	0.001	0.0065 ± 0.015	0.0125 ± 0.037	-0.002 ± 0.0071	0.021 ± 0.038	-0.0085 ± 0.0064	-0.002 ± 0.0042	0.046 ± 0.018	-0.0005 ± 0.021	-0.0075 ± 0.012	-0.0075 ± 0.016	-0.024 ± 0.0085
CASM3C:PAI-I	0.0135 ± 0.00071	-0.0015 ± 0.0092	0.003 ± 0.014	0.008 ± 0.0071	0.002 ± 0.014	0.012 ± 0.018	-0.0075 ± 0.013	-0.0095 ± 0.011	-0.007 ± 0.0042	0.0005 ± 0.011	0.0075 ± 0.0021	0.001 ± 0.016	-0.0015 ± 0.019	0.012 ± 0.018	0.0095 ± 0.012	-0.006 ± 0.0085	0.002 ± 0.025	-0.0045 ± 0.0035	0.0075 ± 0.0078	-0.007 ± 0.016	0.009 ± 0.0085	-0.0005 ± 0.018	0.0035 ± 0.011	0.0105 ± 0.015	0.009 ± 0.0057	0	0 ± 0.0071	0.004 ± 0.0085
